Experimental data: article PMC4559561, “Radioiodinated PARP1 tracers for glioblastoma imaging” (EJNMMI Research, 2015)

System: orthotopic U251 MG tumors
Test: Ex vivo autoradiography of orthotopic tumor sections
Format: in vivo, mouse
[1] = no Olaparib, 500 μCi, 2 h circulation

SMILES: O=C(c1ccc([131I])cc1)N1CCN(C(=O)c2cc(Cc3n[nH]c(=O)c4ccccc34)ccc2F)CC1 [[^131I]-I2-PARPi]
- autoradiography signal intensity, tumor tissue vs healthy brain tissue [1]: 15.7 fold
- autoradiography signal intensity, tumor tissue vs muscle tissue [1]: 6.2 fold
- autoradiography signal intensity, muscle (with Olaparib treatment): 248 ± 72 AU
- autoradiography signal intensity, tumor tissue (with Olaparib treatment): 536 ± 87 AU
- autoradiography signal intensity, muscle (without Olaparib treatment): 192 ± 20 AU
- autoradiography signal intensity, tumor tissue (without Olaparib treatment): 1222 ± 203 AU
